{"source": "the supplement of paper PMC4604168 (melanoma cell lines)", "note": "Some of the results follow. Single values are uncertain, as repeats are few or missing.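 Imaging used 1,536-well plates; nuclei positive for cleaved PARP by antibody were divided by total DNA-stained nuclei to yield the apoptosis fraction. Doses for screening kept most cells viable, and cell lines differ markedly in resting and induced cleaved-PARP levels.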", "data": [{"test_system": "IST-MEL1", "experiment": "cleaved PARP positive nuclei fraction relative to DMSO control; melanoma cells; higher = more apoptosis", "conditions": "library dose: low library concentration; 72 h", "units": {"cleaved PARP positive nuclei fraction": "%"}, "values": [{"smiles": "CC1(C)CCC(c2ccc(Cl)cc2)=C(CN2CCN(c3ccc(C(=O)NS(=O)(=O)c4ccc(N[C@H](CCN5CCOCC5)CSc5ccccc5)c(S(=O)(=O)C(F)(F)F)c4)cc3)CC2)C1", "note": "+ CCCS(=O)(=O)Nc1ccc(F)c(C(=O)c2c[nH]c3ncc(Cl)cc23)c1F [PLX4720] (first compound 0.4 µM, partner dose 0.08 µM)", "cleaved PARP positive nuclei fraction": 104}, {"smiles": "CN(c1ncccc1CNc1nc(Nc2ccc3c(c2)CC(=O)N3)ncc1C(F)(F)F)S(C)(=O)=O", "note": "+ NC1(c2ccc(-c3nc4ccn5c(=O)[nH]nc5c4cc3-c3ccccc3)cc2)CCC1 [MK2206] (first compound 0.08 µM, partner dose 0.4 µM)", "cleaved PARP positive nuclei fraction": 306}, {"smiles": "C[C@@H](N)c1ccc(C(=O)Nc2ccnc3[nH]ccc23)cc1", "note": "+ Nc1ccn([C@@H]2O[C@H](CO)[C@@H](O)C2(F)F)c(=O)n1 [gemcitabine] (first compound 0.4 µM, partner dose 0.0004 µM)", "cleaved PARP positive nuclei fraction": 125}, {"smiles": "CS(=O)(=O)c1ccc(C(=O)Nc2ccc(Cl)c(-c3ccccn3)c2)c(Cl)c1", "note": "[vismodegib] + CCCCCCCCc1ccc(CCC(N)(CO)CO)cc1 [fingolimod] (first compound 1 µM, partner dose 2 µM)", "cleaved PARP positive nuclei fraction": 198}, {"smiles": "C[C@@H](N)c1ccc(C(=O)Nc2ccnc3[nH]ccc23)cc1", "note": "+ Nc1ncn([C@H]2C[C@H](O)[C@@H](CO)O2)c(=O)n1 [decitabine] (first compound 0.4 µM, partner dose 0.1 µM)", "cleaved PARP positive nuclei fraction": 187}, {"smiles": "C[C@]1(O)C[C@@H](c2nc(-c3ccc4ccc(-c5ccccc5)nc4c3)c3c(N)nccn32)C1", "note": "+ CS(=O)(=O)c1ccc(C(=O)Nc2ccc(Cl)c(-c3ccccn3)c2)c(Cl)c1 [vismodegib] (first compound 0.4 µM, partner dose 1 µM)", "cleaved PARP positive nuclei fraction": 62.7}, {"smiles": "C[C@@H](N)c1ccc(C(=O)Nc2ccnc3[nH]ccc23)cc1", "note": "+ CCCS(=O)(=O)Nc1ccc(F)c(C(=O)c2c[nH]c3ncc(Cl)cc23)c1F [PLX4720] (first compound 0.4 µM, partner dose 0.08 µM)", "cleaved PARP positive nuclei fraction": 86}, {"smiles": "CN(c1ncccc1CNc1nc(Nc2ccc3c(c2)CC(=O)N3)ncc1C(F)(F)F)S(C)(=O)=O", "note": "+ O=C(O)c1ccc2c(c1)nc(Nc1cccc(Cl)c1)c1ccncc12 [CX4945] (first compound 0.08 µM, partner dose 0.4 µM)", "cleaved PARP positive nuclei fraction": 103}, {"smiles": "NC(=O)c1ccc(N(C(N)=O)c2c(F)cccc2F)nc1-c1ccc(F)cc1F", "note": "+ C=CCNC1=C2C[C@@H](C)C[C@H](OC)[C@H](O)[C@@H](C)/C=C(\\C)[C@H](OC(N)=O)[C@@H](OC)/C=C\\C=C(/C)C(=O)NC(=CC1=O)C2=O [Tanespimycin] (first compound 0.4 µM, partner dose 0.002 µM)", "cleaved PARP positive nuclei fraction": 209}, {"smiles": "Cn1cnc2c(F)c(Nc3ccc(Br)cc3Cl)c(C(=O)NOCCO)cc21", "note": "[selumetinib] + Nc1ccn([C@@H]2O[C@H](CO)[C@@H](O)C2(F)F)c(=O)n1 [gemcitabine] (first compound 0.015 µM, partner dose 0.0004 µM)", "cleaved PARP positive nuclei fraction": 119}, {"smiles": "C[C@@H](N)c1ccc(C(=O)Nc2ccnc3[nH]ccc23)cc1", "note": "+ Cn1c(=O)n(-c2ccc(C(C)(C)C#N)cc2)c2c3cc(-c4cnc5ccccc5c4)ccc3ncc21 [NVP-BEZ235] (first compound 0.4 µM, partner dose 0.004 µM)", "cleaved PARP positive nuclei fraction": 138}, {"smiles": "Cn1cnc2c(F)c(Nc3ccc(Br)cc3Cl)c(C(=O)NOCCO)cc21", "note": "[selumetinib] + Cn1c(Nc2ccc(C(F)(F)F)cc2)nc2cc(Oc3ccnc(-c4ncc(C(F)(F)F)[nH]4)c3)ccc21 [CHIR265] (first compound 0.015 µM, partner dose 0.08 µM)", "cleaved PARP positive nuclei fraction": 74.4}, {"smiles": "NC1(c2ccc(-c3nc4ccn5c(=O)[nH]nc5c4cc3-c3ccccc3)cc2)CCC1", "note": "+ Clc1ccc(Nc2nnc(Cc3ccncc3)c3ccccc23)cc1 [vatalanib] (first compound 0.4 µM, partner dose 2 µM)", "cleaved PARP positive nuclei fraction": 201}, {"smiles": "CCCCCCCCc1ccc(CCC(N)(CO)CO)cc1", "note": "[fingolimod] + OCc1c[nH]c2ccccc12 [Indole-3-carbinol] (first compound 2 µM, partner dose 0.8 µM)", "cleaved PARP positive nuclei fraction": 141}, {"smiles": "Cn1sc(=O)n(Cc2ccccc2)c1=O", "note": "+ Clc1ccc(Nc2nnc(Cc3ccncc3)c3ccccc23)cc1 [vatalanib] (first compound 0.4 µM, partner dose 2 µM)", "cleaved PARP positive nuclei fraction": 129}, {"smiles": "NC(=O)c1ccc(N(C(N)=O)c2c(F)cccc2F)nc1-c1ccc(F)cc1F", "note": "+ CC(=O)c1c(C)c2cnc(Nc3ccc(N4CCNCC4)cn3)nc2n(C2CCCC2)c1=O [palbociclib] (first compound 0.4 µM, partner dose 0.04 µM)", "cleaved PARP positive nuclei fraction": 70.5}, {"smiles": "CC1(C)CCC(c2ccc(Cl)cc2)=C(CN2CCN(c3ccc(C(=O)NS(=O)(=O)c4ccc(N[C@H](CCN5CCOCC5)CSc5ccccc5)c(S(=O)(=O)C(F)(F)F)c4)cc3)CC2)C1", "note": "+ CNC(=O)c1cc(Oc2ccc(NC(=O)Nc3ccc(Cl)c(C(F)(F)F)c3)cc2)ccn1 [sorafenib] (first compound 0.4 µM, partner dose 0.4 µM)", "cleaved PARP positive nuclei fraction": 58.6}, {"smiles": "NC(=O)c1ccc(N(C(N)=O)c2c(F)cccc2F)nc1-c1ccc(F)cc1F", "note": "+ COc1ccc(C2=N[C@@H](c3ccc(Cl)cc3)[C@@H](c3ccc(Cl)cc3)N2C(=O)N2CCNC(=O)C2)c(OC(C)C)c1 [Nutlin-3] (first compound 0.4 µM, partner dose 0.1 µM)", "cleaved PARP positive nuclei fraction": 125}, {"smiles": "C[C@]1(O)C[C@@H](c2nc(-c3ccc4ccc(-c5ccccc5)nc4c3)c3c(N)nccn32)C1", "note": "+ Cn1c(=O)n(-c2ccc(C(C)(C)C#N)cc2)c2c3cc(-c4cnc5ccccc5c4)ccc3ncc21 [NVP-BEZ235] (first compound 0.4 µM, partner dose 0.004 µM)", "cleaved PARP positive nuclei fraction": 70.6}, {"smiles": "CC1(C)CCC(c2ccc(Cl)cc2)=C(CN2CCN(c3ccc(C(=O)NS(=O)(=O)c4ccc(N[C@H](CCN5CCOCC5)CSc5ccccc5)c(S(=O)(=O)C(F)(F)F)c4)cc3)CC2)C1", "note": "+ Nc1ncn([C@H]2C[C@H](O)[C@@H](CO)O2)c(=O)n1 [decitabine] (first compound 0.4 µM, partner dose 0.1 µM)", "cleaved PARP positive nuclei fraction": 182}]}]}
